Reference: PubChem BioAssay AID504804 (Drosophila RNAi Screening Center, 2011)

Aim: 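Fly genes whose loss lessens doxorubicin-driven cell death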 (primary screen)
Cells: Drosophila Kc cells
Reagent: long dsRNA against Drosophila genes, 0.5 µg dsRNA per well
Timing: 96 h (48 h knock-down, then 48 h drug)
Treatment: doxorubicin 5 µg/ml for 48 h, added 48 h after dsRNA
Detection: 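Viability measured as cellular ATP by luminescence after 48 h knock-down then 48 h doxorubicin at 5 µg/ml; unnormalised plate counts for each replicate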
Reading the numbers: raw ATP luminescence: higher = more viable cells, protection from doxorubicin
Call rule: 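z-score of 2 or more over plate mean in both duplicates, retained only when retests and separate dsRNAs confirm the protection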
The screen tested about 19,000 reagents; below is an unselected part of those with a known target gene and a result. In the full data, 47 (0.25%) got an active call. 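Signals are raw, not normalised; exact z-scores behind calls not deposited; actives needed confirmation, so some wells reaching 2 SD are inactive.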 Names joined by + are all predicted targets of the reagent. No sequences are given here.

no.	Target gene	amplicon	raw ATP luminescence, replicate 1	raw ATP luminescence, replicate 2	outcome
1	Arl6IP1 (ADP-ribosylation factor-like 6 interacting protein 1)	DRSC14231	74710	56740	inactive
2	Cyp303a1 (Cytochrome P450 303a1)	DRSC03300	52207	52647	inactive
3	Trf (TBP-related factor)	DRSC03462	46467	98570	inactive
4	CG18265	DRSC10310	65640	55307	inactive
5	CG10222	DRSC09714	67060	65917	inactive
6	CG14316	DRSC14795	51610	68210	inactive
7	Rs1	DRSC05945	55173	42447	inactive
8	CG10660	DRSC09769	42060	38603	inactive
9	stwl (stonewall)	DRSC11400	17637	17083	inactive
10	CG13127	DRSC02223	42457	59940	inactive
11	slmo + CG34179	DRSC03143	94370	47997	inactive
12	Atat (alpha-tubulin acetylase)	DRSC10392	36943	35117	inactive
13	CG3081	DRSC18571	44020	40270	inactive
14	Gyc89Db (Guanylyl cyclase at 89Db)	DRSC15009	46067	59160	inactive
15	Met75Ca + Met75Cb	DRSC09549	92173	92183	inactive
16	Met75Ca + Met75Cb	DRSC11221	36800	33500	inactive
17	CG10936	DRSC05669	1.10e5	1.27e5	inactive
18	CG10936	DRSC05670	82513	1.12e5	inactive
19	Naa60 (N(alpha)-acetyltransferase 60)	DRSC10301	97030	85210	inactive
20	CG4610	DRSC04477	80310	53857	inactive
21	Lcp1 (Larval cuticle protein 1)	DRSC07455	43070	70127	inactive
22	Cerk (Ceramide kinase)	DRSC12285	47257	19217	inactive
23	Cep97 (Centrosomal protein 97kDa)	DRSC00637	88367	76070	inactive
24	dec (defective chorion)	DRSC18759	40150	36080	inactive
25	CG13482	DRSC10024	23773	25190	inactive
26	CG15020	DRSC08474	60873	78523	inactive
27	Atg10 + CG18853 + CG12822	DRSC20757	1.91e5	1.62e5	inactive
28	indra	DRSC08558	69443	77383	inactive
29	CG9393	DRSC16486	47293	28803	inactive
30	CG12147	DRSC12192	66730	67000	inactive
31	CG42502 + CG10570	DRSC02071	84830	48690	inactive
32	Atg12 (Autophagy-related 12)	DRSC09803	69097	72387	inactive
33	Vha16-2 (Vacuolar H[+] ATPase 16kD subunit 2)	DRSC10873	78627	62520	inactive
34	Bem46	DRSC00275	24447	29127	inactive
